Results taken from patent publication US20060211636A1, “Macrolide Antibiotics” (priority 2000, published 2006).
For at least one compound, name, drawing or mass did not settle the structure. Some compounds share one range, which may span the group rather than tell each member. Some results were stated once for a whole list of compounds, not compound by compound.

What was measured:
[1] = system: erythromycin resistant Streptococcus pneumoniae strains; test: MIC according to NCCLS, erythromycin resistant Streptococcus pneumoniae; format: cell-based
[2] = system: erythromycin susceptible Streptococcus pneumoniae strains; test: MIC according to NCCLS, erythromycin susceptible Streptococcus pneumoniae; format: cell-based

| Compound | MIC [1] | MIC (microbial inhibition concentration) [2] |
| --- | --- | --- |
| CCC1OC(=O)C(C)C(=O)C(C)C(OC2OC(C)CC(N(C)C)C2O)C(C)(OC)CC(C)C(=O)C(C)C2C(NC(=O)CCC(=O)c3cc(OC)c(OC)cc3O)C(=O)OC12C [Example 52, (11S,21R,S)-3-Decladinosyl-11,12-dideoxy-6-O-methyl-3-oxo-12,11-[oxycarbonyl-(4-(2-hydroxy-4,5-dimethoxy-phenyl)-4-oxo-butyramido)-methylene]-erythromycin A] | 8-0.06 | <= 0.1 ug/ml |
| CCC1OC(=O)C(C)C(=O)C(C)C(OC2OC(C)CC(N(C)C)C2O)C(C)(OC)CC(C)C(=O)C(C)C2C(NC(=O)CCC(=O)c3ccc(OC)c(OC)c3)C(=O)OC12C [Example 56, (11S,21S)-3-Decladinosyl-11,12-dideoxy-6-O-methyl-3-oxo-12,11-[oxycarbonyl-(4-(3,4-dimethoxy-phenyl)-4-oxo-butyramido)-methylene]-erythromycin A] | 8-0.06 | <= 0.1 ug/ml |
| (11S,21S)-3-Decladinosyl-11,12-dideoxy-6-O-methyl-3-oxo-12,11-[oxycarbonyl-(4-(3-hydroxy-4-methoxy-phenyl)-4-oxo-butyramido)-methylene]-erythromycin A [Example 54] |  | <= 0.1 ug/ml |
| CCC1OC(=O)C(C)C(=O)C(C)C(OC2OC(C)CC(N(C)C)C2O)C(C)(OC)CC(C)C(=O)C(C)C2C(NC(=O)CCC(=O)c3ccc4c(c3)OCCO4)C(=O)OC12C [Example 47, (11S,21R,S)-3-Decladinosyl-11,12-dideoxy-6-O-methyl-3-oxo-12,11-[oxycarbonyl-((4-(2,3-dihydro-benzo[1,4]dioxin-6-yl)-4-oxo)-butyramido)-methylene]-erythromycin A] | 8-0.06 | <= 0.1 ug/ml |
| CCC1OC(=O)C(C)C(=O)C(C)C(OC2OC(C)CC(N(C)C)C2O)C(C)(OC)CC(C)C(=O)C(C)C2C(NC(=O)CCC(=O)c3cc4c(s3)CCCC4=O)C(=O)OC12C [Example 49, (11S,21S)-3-Decladinosyl-11,12-dideoxy-6-O-methyl-3-oxo-12,11-[oxycarbonyl-(4-(4-oxo-4,5,6,7-tetrahydro-benzo[b]thiophen-2-yl)-4-oxo-butyramido)-methylene]-erythromycin A] | 8-0.06 | <= 0.1 ug/ml |
| CCC1OC(=O)C(C)C(=O)C(C)C(OC2OC(C)CC(N(C)C)C2O)C(C)(OC)CC(C)C(=O)C(C)C2C(NCCCn3cnc(-c4cccs4)c3)C(=O)OC12C [Example 117, (11S,21S)-3-Decladinosyl-11,12-dideoxy-6-O-methyl-3-oxo-12,11-[oxycarbonyl-(3-(4-(thiophen-2-yl)-imidazol-1-yl)-propylamino)-methylene]-erythromycin A] | 8-0.06 | <= 0.1 ug/ml |
| CCC1OC(=O)C(C)C(=O)C(C)C(OC2OC(C)CC(N(C)C)C2O)C(C)(OC)CC(C)C(=O)C(C)C2C(NC(=O)CCC(=O)c3ccc(OC)c([N+](=O)[O-])c3)C(=O)OC12C [Example 51, (11S,21S)-3-Decladinosyl-11,12-dideoxy-6-O-methyl-3-oxo-12,11-[oxycarbonyl-(4-(4-methoxy-3-nitro-phenyl)-4-oxo-butyramido)-methylene]-erythromycin A] | 8-0.06 | <= 0.1 ug/ml |
| CCC1OC(=O)C(C)C(=O)C(C)C(OC2OC(C)CC(N(C)C)C2O)C(C)(OC)CC(C)C(=O)C(C)C2C(NCCn3cnc(-c4cccnc4)c3)C(=O)OC12C [Example 70, (11S,21S)-3-Decladinosyl-11,12-dideoxy-6-O-methyl-3-oxo-12,11-[oxycarbonyl-(2-(4-(pyridin-3-yl)-imidazol-1-yl)-ethylamino)-methylene]-erythromycin A] | 8-0.06 | <= 0.1 ug/ml |
| CCC1OC(=O)C(C)C(=O)C(C)C(OC2OC(C)CC(N(C)C)C2O)C(C)(OC)CC(C)C(=O)C(C)C2C(NC(=O)CCC(=O)c3ccc(O)c(OC)c3)C(=O)OC12C [Example 58, (11S,21S)-3-Decladinosyl-11,12-dideoxy-6-O-methyl-3-oxo-12,11-[oxycarbonyl-(4-(4-hydroxy-3-methoxy-phenyl)-4-oxo-butyramido)-methylene]-erythromycin A] | 8-0.06 | <= 0.1 ug/ml |
| CCC1OC(=O)C(C)C(=O)C(C)C(OC2OC(C)CC(N(C)C)C2O)C(C)(OC)CC(C)C(=O)C(C)C2C(NCCc3ccnc4ccccc34)C(=O)OC12C [Example 75, (11S,21S)-3-Decladinosyl-11,12-dideoxy-6-O-methyl-3-oxo-12,11-[oxycarbonyl-(2-(quinolin-4-yl)-ethylamino)-methylene]-erythromycin A] | 8-0.06 | <= 0.1 ug/ml |
| (11S,21S)-3-Decladinosyl-11,12-dideoxy-6-O-methyl-3-oxo-12,11-[oxycarbonyl-(3-(4-(pyridin-3-yl)-imidazol-1-yl)-propylamino)-methylene]-erythromycin A [Example 66] |  | <= 0.1 ug/ml |
